According to US20160053026A1, “METHODS FOR TREATING INFECTION BY HPV” (STC.UNM, priority 2011, published 2016):
Some entries share one result that the patent states for a list of compounds. At least one compound was matched to its structure with a doubt left.

Test system: HPV16 E1^E4 early mRNA
Test: RT-qPCR of HPV16 E1^E4 early mRNA in HPV[+] HFK cells
Format: cell-based
Conditions: cetuximab 100 μg/mL or PD98059 25 μM; by 24-48 hours post treatment

COc1cccc(-c2cc(=O)c3ccccc3o2)c1N [PD98059]
reduction of viral gene expression (HPV early mRNAs E1^E4/E5), % lower: ≤ 50%
